Only a part is listed here, and it is no random draw.
The targets below were run with COC(=O)C#Cc1ccccc1 [methyl 3-phenylpropiolate] (assay: log2 ratio of iodoacetamide-alkyne labeling of the cysteine site, DMSO over compound (competition); higher = stronger covalent engagement of the cysteine by the compound, active = 1 or more). Conditions: 500 µM; treatment time 1 h; system: HEK293T cell lysate.
Method in brief: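 Electrophile (500 µM) or vehicle was added to HEK293T lysate (2 mg/mL) for 1 h at ambient temperature before iodoacetamide alkyne labelling (1 h) and click coupling to sCIP-TMT reagents. After pooling, overnight trypsin digestion at 37 °C, streptavidin enrichment and acid elution, peptides were measured by Orbitrap Eclipse LC-MS/MS with FAIMS and quantified in FragPipe. Each cysteine's log2 competition ratio compares mean control-channel with mean compound-channel reporter intensity, control over compound. Data came from duplicate channels across three replicates, excluding cysteines quantified in only one replicate.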

log2 ratio of iodoacetamide-alkyne labeling, inactive:
CANX C160 (UniProt P27824) 0.611
MPST C7 (UniProt P25325) 0.148
GLDC C612 (UniProt P23378) 0.41
WARS C274 (UniProt P23381) 0.166
U2AF2 C429 (UniProt P26368) 0.00353
UniProt P26367_C94 0.097
CFL1 C39 (UniProt P23528) -0.222
FLNA C1453 (UniProt P21333) 0.357
FECH C395 (UniProt P22830) 0.372
GART C134 (UniProt P22102) 0.298
PTBP1 C23 (UniProt P26599) 0.39
ECHS1 C213 (UniProt P30084) -0.205
CSRP1 C122 (UniProt P21291) -0.0432
MCM3 C148 (UniProt P25205) 0.548
UniProt P26639_C107 0.12
FLNA C717 (UniProt P21333) 0.289
CAD C183 (UniProt P27708) 0.278
GART C298 (UniProt P22102) 0.0594
ECHS1 C111 (UniProt P30084) 0.461
UniProt P26639_C630 0.323
ATP6V1C1 C15 (UniProt P21283) 0.0079
EIF2S2 C302 (UniProt P20042) -0.0112
TPP2 C28 (UniProt P29144) 0.00516
UniProt P28482_C161 0.079
GART C646 (UniProt P22102) 0.106
MCC C714 (UniProt P23508) 0.565
UniProt P28290_C599 0.652
LIG1 C532 (UniProt P18858) 0.442
UniProt P19784_C336 0.273
VARS C720 (UniProt P26640) 0.0991
GART C291 (UniProt P22102) 0.226
ATP6V1B2 C112 (UniProt P21281) 0.262
NF1 C1486 (UniProt P21359) 0.0929
ATP6V1B2 C162 (UniProt P21281) 0.0743
PRDX3 C229 (UniProt P30048) 0.734
FDXR C353 (UniProt P22570) 0.474
PTBP1 C250 (UniProt P26599) 0.165
VARS C41 (UniProt P26640) 0.235

3 successive records from above:
log2 ratio of iodoacetamide-alkyne labeling, inactive:
MPST C7 (UniProt P25325) 0.148
GLDC C612 (UniProt P23378) 0.41
WARS C274 (UniProt P23381) 0.166

Source: the supplement of paper PMC11006884
